Source: PubChem BioAssay AID1259308 (NCATS, 2017)

Aim: 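Knock-downs that increase output of a recombinant reporter protein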 (primary screen)
Cells: human HEK293 embryonic kidney cells stably expressing firefly luciferase (HEK-CMV-Luc2-Hygro)
Reagent: single siRNA against human genes, 0.8 pmol siRNA per well
Duration: 72 h
Detection: 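Reporter luminescence and viable-cell signal on separate replicate plates, given as percent of non-targeting control and median/MAD z-scores, plus per-cell luciferase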
Scale: total luciferase, z-score and total luciferase, % of control: higher = more reporter protein produced
Call rule: 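An siRNA counts as active if its total luciferase robust z-score exceeds 3; genes with two or more such siRNAs out of three were retested with fresh siRNAs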
Meaning of the calls: active = raised luciferase; inactive = no rise
This is a random part of about 59,000 reagents. About 1,510 of all reagents (2.6%) count as active. 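Calls use total luciferase alone and ignore viability, so some active siRNAs may act by altering cell number.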 Entries without a mark were called inactive. Not all columns of the deposit are shown. No sequences are given here.

With KRT31 (GeneID 3881) [SID160776433], what does the deposit list?
total luciferase, z-score: -0.969; total luciferase, % of control: 62.6

Which result is listed for KRT31 (GeneID 3881) [SID160776434]?
total luciferase, z-score: 0.751; total luciferase, % of control: 96.8

What is on record for KRT31 (GeneID 3881) [SID160776435]?
total luciferase, z-score: -0.0382; total luciferase, % of control: 81.1

For ACOT6 (GeneID 641372) [SID160768409], how do the results read?
total luciferase, z-score: -0.536; total luciferase, % of control: 71.2

For ACOT6 (GeneID 641372) [SID160768410], how do the results read?
total luciferase, z-score: 0.768; total luciferase, % of control: 97.2

For ACOT6 (GeneID 641372) [SID160768411], what was measured?
total luciferase, z-score: 0.249; total luciferase, % of control: 86.8

What is on record for RNF183 (GeneID 138065) [SID160757568]?
total luciferase, z-score: -0.714; total luciferase, % of control: 67.7

With RNF183 (GeneID 138065) [SID160757569], how do the results read?
total luciferase, z-score: -0.557; total luciferase, % of control: 70.8

For RNF183 (GeneID 138065) [SID160757570], what does the deposit list?
total luciferase, z-score: 0.482; total luciferase, % of control: 91.5

What did the screen give for PAPPA2 (GeneID 60676) [SID160747163]?
total luciferase, z-score: -0.66; total luciferase, % of control: 68.8

For PAPPA2 (GeneID 60676) [SID160747165], what does the deposit list?
total luciferase, z-score: 0.931; total luciferase, % of control: 100

What is on record for PAPPA2 (GeneID 60676) [SID160747166]?
total luciferase, z-score: 2.53; total luciferase, % of control: 132

Which result is listed for PKDREJ (GeneID 10343) [SID160728213]?
total luciferase, z-score: 2.89; total luciferase, % of control: 139

What did the screen give for PKDREJ (GeneID 10343) [SID160728214]?
total luciferase, z-score: -1.28; total luciferase, % of control: 56.4

For PKDREJ (GeneID 10343) [SID160728215], how do the results read?
total luciferase, z-score: 0.29; total luciferase, % of control: 87.6

For XYLT2 (GeneID 64132) [SID160731719], how do the results read?
total luciferase, z-score: -1.69; total luciferase, % of control: 48.4

What is on record for XYLT2 (GeneID 64132) [SID160747513]?
total luciferase, z-score: -0.0687; total luciferase, % of control: 80.5

What did the screen give for XYLT2 (GeneID 64132) [SID160747514]?
total luciferase, z-score: -0.566; total luciferase, % of control: 70.6

With KRTAP12-1 (GeneID 353332) [SID160733148], what was measured?
total luciferase, z-score: -0.0539; total luciferase, % of control: 80.8

For KRTAP12-1 (GeneID 353332) [SID160765188], what was measured?
total luciferase, z-score: -0.206; total luciferase, % of control: 77.8

For KRTAP12-1 (GeneID 353332) [SID160765189], what was measured?
total luciferase, z-score: 5.25 (active); total luciferase, % of control: 186

What did the screen give for ZC3H6 (GeneID 376940) [SID160765499]?
total luciferase, z-score: -0.961; total luciferase, % of control: 62.8

For ZC3H6 (GeneID 376940) [SID160765500], what does the deposit list?
total luciferase, z-score: -0.143; total luciferase, % of control: 79

With ZC3H6 (GeneID 376940) [SID160765501], how do the results read?
total luciferase, z-score: 2.14; total luciferase, % of control: 124

What is on record for LMOD3 (GeneID 56203) [SID160744941]?
total luciferase, z-score: 0.354; total luciferase, % of control: 88.9

Which result is listed for LMOD3 (GeneID 56203) [SID160744942]?
total luciferase, z-score: -1.09; total luciferase, % of control: 60.1

How did the screen score LMOD3 (GeneID 56203) [SID160744943]?
total luciferase, z-score: 0.794; total luciferase, % of control: 97.7

With H2BW1 (GeneID 158983) [SID160759715], what does the deposit list?
total luciferase, z-score: 0.187; total luciferase, % of control: 85.6

What is on record for H2BW1 (GeneID 158983) [SID160759716]?
total luciferase, z-score: 1.07; total luciferase, % of control: 103

How did the screen score H2BW1 (GeneID 158983) [SID160759717]?
total luciferase, z-score: 0.228; total luciferase, % of control: 86.4

With KMT5B (GeneID 51111) [SID160740088], how do the results read?
total luciferase, z-score: 0.958; total luciferase, % of control: 101

What is on record for KMT5B (GeneID 51111) [SID160740089]?
total luciferase, z-score: -0.596; total luciferase, % of control: 70

With KMT5B (GeneID 51111) [SID160740090], what does the deposit list?
total luciferase, z-score: -0.227; total luciferase, % of control: 77.4

With CYLC1 (GeneID 1538) [SID160751124], what does the deposit list?
total luciferase, z-score: -0.349; total luciferase, % of control: 74.9

With CYLC1 (GeneID 1538) [SID160751135], how do the results read?
total luciferase, z-score: -0.334; total luciferase, % of control: 75.2

How did the screen score CYLC1 (GeneID 1538) [SID160751144]?
total luciferase, z-score: 1.35; total luciferase, % of control: 109

What did the screen give for ARMS2 (GeneID 387715) [SID160765646]?
total luciferase, z-score: -0.888; total luciferase, % of control: 64.2

Which result is listed for ARMS2 (GeneID 387715) [SID160765648]?
total luciferase, z-score: -1.22; total luciferase, % of control: 57.5

For ARMS2 (GeneID 387715) [SID160765649], how do the results read?
total luciferase, z-score: 0.54; total luciferase, % of control: 92.6

With SOFU1 (GeneID 135927) [SID160757431], what was measured?
total luciferase, z-score: -0.0589; total luciferase, % of control: 80.7

With SOFU1 (GeneID 135927) [SID160757432], what was measured?
total luciferase, z-score: -0.621; total luciferase, % of control: 69.5

What is on record for SOFU1 (GeneID 135927) [SID160757433]?
total luciferase, z-score: 2.24; total luciferase, % of control: 126

Just “total luciferase, z-score”, for 4 of the entries above:
CYLC1 (GeneID 1538) [SID160751135] = -0.334
CYLC1 (GeneID 1538) [SID160751144] = 1.35
ARMS2 (GeneID 387715) [SID160765646] = -0.888
ARMS2 (GeneID 387715) [SID160765648] = -1.22
